Assay results taken from article PMC11605073.
No constants are given. Whether binding was seen depends on the method and setting. Binding seen in cells or lysates may run through a third protein. Some binding calls cover weakened binding; strength is not graded here.

Target: T1, ASCL1 (human (endogenous in patient-derived GBM xenograft)) (UniProt P50553)
T1 sequence: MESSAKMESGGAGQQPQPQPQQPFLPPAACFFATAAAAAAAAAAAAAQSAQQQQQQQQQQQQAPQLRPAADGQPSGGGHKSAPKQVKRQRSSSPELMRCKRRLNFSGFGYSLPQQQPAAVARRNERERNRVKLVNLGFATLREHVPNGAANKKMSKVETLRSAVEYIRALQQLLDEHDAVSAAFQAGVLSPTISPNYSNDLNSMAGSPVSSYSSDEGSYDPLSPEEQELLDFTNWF
Assay: co-IP; PDOX-GBM tumor, nuclear extracts in RIPA buffer, pre-cleared with Dynabeads Protein G; IP with guinea pig anti-ASCL1 for 2 h, Dynabeads Protein G at 4 °C overnight; blot with guinea pig anti-ASCL1 and rabbit anti-OLIG2

- binding: binds
B1: OLIG2 (protein, UniProt Q13516 1-323)
chain: MDSDASLVSSRPSSPEPDDLFLPARSKGSSGSAFTGGTVSSSTPSDCPPELSAELRGAMGSAGAHPGDKLGGSGFKSSSSSTSSSTSSAAASSTKKDKKQMTEPELQQLRLKINSRERKRMHDLNIAMDGLREVMPYAHGPSVRKLSKIATLLLARNYILMLTNSLEEMKRLVSEIYGGHHAGFHPSACGGLAHSAPLPAATAHPAAAAHAAHHPAVHHPILPPAAAAAAAAAAAAAVSSASLPGSGLPSVGSIRPPHGLLKSPSAAAAAPLGGGGGGSGASGGFQHWGGMPCPCSMCQVPPPHHHVSAMGAGSLPRLTSDAK
